pIC50: −log10 of the molar value. Like-named read-outs stand apart in the source and are kept apart here.
How the values were obtained:
Wnt/β-catenin pathway = test: dual-luciferase TCF/LEF reporter assay, LiCl-activated, HEK293 cells; assay type: cell-based
Method: Lithium chloride (LiCl), which has been previously established as an activator of the Wnt/β-catenin pathway through its direct and indirect effects on GSK3β was used for pathway activation. The inhibition of the Wnt/β-catenin pathway by a compound may be determined after its incubation with cells for 24 hours.
The assay provided herein is a dual-luciferase assay to measure Wnt/β-catenin pathway activation using a TCF/LEF responsive reporter construct similar to that described previously (Thorne et al., 2010).

[1] = pilot pharmacokinetic study, single IV and oral administration
Text: Representative data from each group is shown.
Blood samples were collected at multiple time points. […] Ultra-performance liquid chromatography system with a triple quadruple detector (UPLC/TQD) was used for compound quantitation.

[2] = system: C57BL/6 mice on high-fat diet; settings: 0.5 mg/kg/3 days
Text: C57BL/6 mice (n=6/group) were put either on high-fat (HF) or normal chow (NC) diet.

[3] = system: Madin-Darby Canine Kidney (MDCK) epithelial cell monolayer
HEK293 cells = test: cytotoxicity, Cell Counting Kit-8 colorimetric assay; settings: Homo sapiens, HEK293, read-out: anti-proliferation IC50

SMILES: Cc1cc(/C=C/c2ccc3cc(N(C)C)ccc3[n+]2C)c(C)n1-c1ccccc1 [Pyrvinium, pyrvinium, reference compound]
- remaining Wnt signaling activity (or RLU %) (Wnt/β-catenin pathway): 29.1%
- IC50 (Wnt/β-catenin pathway; Homo sapiens, HEK293, read-out: IC50 (nM) or remaining activity at 1 μM: IC50): 293 nM
- pIC50 (Wnt/β-catenin pathway; Homo sapiens, HEK293, read-out: IC50, Wnt/β-catenin pathway inhibition): 6.56
- pIC50 (Wnt/β-catenin pathway; Homo sapiens, HEK293, read-out: 50% of inhibition (IC50)): 6.53
- absorption ([1]; oral, mice): little or no absorption
- death after intravenous administration in PK study ([1]; pyrvinium pamoate 2 mg/kg IV): died after thirty minutes
- oral half-life ([1]; pyrvinium pamoate 2 mg/kg oral, mice): about one
- overt toxicity on repeated dosing [2]: overt toxicity was not observed
- apical-to-basolateral and basolateral-to-apical flux [3]: below the limit of detection
- time to death after single dose (C57BL/6 mice; single IV dose 2 mg/kg, preliminary survival study): ≤ 6 h
- lethality of single dose (C57BL/6 mice; single dose of 2 mg/kg): caused mouse death
- pIC50 (HEK293 cells): 5.70
